The source of these data is patent US5786195.

For at least one entry, the source does not settle the construct or the ends of the probe. Weaker means in comparison with the reference protein, sequence or condition of that experiment.

In this series the test system is BssHII multi-specific methylase (bssHIIM1) (Bacillus stearothermophilus H3). In words: activity in cells. Particulars: protein in cells, only the site is given.

For CGGCCG (double strand) [EagI site], under “partial modification, partially resistant to EagI”, the “activity on this sequence” value is “less active”.
As to ACGCGT (double strand) [MluI site], the “activity on this sequence” value (partial modification, partially resistant to MluI) is recorded as “less active”.
Regarding GCGCGC (double strand) [BssHII site], where the note is “methylation in E. coli, plasmid resistant to BssHII digestion”, the “activity on this sequence” value is on record as “active”.
